PubChem BioAssay AID493014 (National Center for Advancing Translational Sciences (NCATS), 2011)
The campaign covered roughly 340,000 compounds. About 170 (0.05%) were called active. The inconclusive results got no clear call from the source; some entries with a clear call stand among them for comparison. Calls come from the whole dose curve; as a rule, active = well fitted inhibition curve with a large enough effect in the signal ratio, with a control signal flat (not every such curve was filed as active); inconclusive = small, poorly fitted or top-dose-only effect, or effect the other way, or a change in a side signal; inactive = flat fitted curve, though single readings scatter; the % refers to the signal ratio. Potencies beside an inconclusive call are fits to weak or partial responses and may not hold up.

assay: qHTS Assay to Find Inhibitors of Chronic Active B-Cell Receptor Signaling; settings: ABC-DLBCL IkBa-CBG/CBR reporter, luminescence ratio (green luciferase fused to IkBa over red control in TMD8 lymphoma cells), 4 h; activity change, negative = inhibition: at 46.1 µM (top of the series);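 for activity change, negative = inhibition: plate controls were basal doxycycline-induced cells for no effect and cells given 10 µM MG132 for full effect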
Summary of the method: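 Cell line TMD8 (human ABC DLBCL), stably expressing tet-inducible CBG68-IkBa fusion and CBR; IMDM/0.5% FBS; cpd up to 46 uM; dox induction, 4 h, 37C/5% CO2; dual luminescence; green/red ratio; MG132 control.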
Potency is the fitted concentration of half-maximal effect.

Structure (SMILES)	activity change, negative = inhibition	Potency
Cc1ccc(C)c(N2CN(Cc3ccco3)CNC2=S)c1	inactive	
Nc1ccccc1-c1nc2ccccc2c(=O)o1		inconclusive: 20 µM [falling, partial curve]
CS(=O)(=O)N(CC(O)Cn1c2ccccc2c2ccccc21)c1cccc2ccccc12 (centres undefined)	inconclusive: 9.72%	
O=C(O)c1ccc(Cl)c(NCc2cccnc2)c1	inactive	
CCC(CC)NC(=O)c1cc2c(C)nn(Cc3ccccc3Cl)c2s1		inconclusive: 10.3 µM [falling, partial curve]
O=C(c1ccncc1)N1CCN(C(=O)c2ccncc2)CC1	inconclusive: 6.44%	
O=C(CSc1nnc(-c2ccc(C(F)(F)F)cn2)s1)c1ccc(Cl)cc1	inactive	
COC(=O)CSc1nnc(-c2ccc(OC)cc2OC)o1	inconclusive: 0.759%	
CC1(C)CC(=O)C(C=Nc2ccc3c(c2)OCO3)=C(O)C1	inconclusive: -1.32%	
CCC(=O)Nc1cccc(C2=NOC3(C2)C[C@@H](C(N)=O)N(C(=O)C(c2ccccc2)c2ccccc2)C3)c1 (some centres undefined)	inconclusive: -8.05%	
CSc1cccc(NC(=O)CCn2c(=O)c3cccn3c3cccnc32)c1	inconclusive: -1.92%	
Cc1c(Br)c(C(F)(F)F)nn1CC(=O)NCc1ccco1		inconclusive: 6.31 µM [falling, single point]
CC(C)Nc1ncnc2c1cnn2Cc1ccc(Cl)cc1	inconclusive: 1.71%	
Cc1ccccc1CC1(CO)CCCN(Cc2cn[nH]c2-c2ccccc2)C1 (centres undefined)	inconclusive: -1.16%	
c1ccc(-c2oc3ncnc(N4CCOCC4)c3c2-c2ccccc2)cc1	inconclusive: -15.2%	
CC(C)(C)OC(=O)NCc1ccc(NC(=O)c2nc[nH]c2C(=O)N[C@@H](Cc2ccccc2)C(=O)OC(C)(C)C)cc1	inconclusive: 7.46%	
CC(=O)Nc1ccccc1-c1nnn(CC(=O)Nc2ccc3c(c2)OCCO3)n1	inactive	
COc1ccccc1Nc1c2ccccc2nc2ccccc12	inconclusive: -11%	
COC(=O)c1cc(=O)nc2sc3ccccc3n12	inconclusive: 3.05%	
COc1ccc(C2=NN(CC(=O)Nc3ccccc3C)C(=O)CC2)cc1	inconclusive: 2.82%	
Cc1ccc(CN(CC(O)COc2cccc3[nH]cc(C)c23)C(C)(C)C)cc1 (centres undefined)	inactive	
CC(C)C1N(C(=O)N(C)C)CCN1S(=O)(=O)c1ccccc1 (centres undefined)	inactive	
Cc1nn2c(N)c(-c3ccccc3)cnc2c1-c1ccccc1	inconclusive: 3.1%	
Cc1ccc(OCC(=O)Nc2ccc3c(c2)OCO3)cc1C		inconclusive: 20 µM [falling, partial curve]
